Earlier results on one compound are cited in patent US20110200625A1, “PHARMACEUTICAL COMPOSITION” (priority 2010, published 2011).

For the data set the following is noted: room temperature; cited from earlier work.

`CO[C@H]1C[C@@H]2CC[C@@H](C)[C@@](O)(O2)C(=O)C(=O)N2CCCC[C@H]2C(=O)O[C@H]([C@H](C)C[C@@H]2CC[C@@H](O)[C@H](OC)C2)CC(=O)[C@H](C)/C=C(\C)[C@@H](O)[C@@H](OC)C(=O)[C@H](C)C[C@H](C)/C=C/C=C/C=C/1C` [rapamycin]: the water-solubility entry was “very poor”.
